Test results from article PMC12382740 (Antibiotics, 2025).
For some assays here: HELM strings list residues between dots; [ac] is acetyl, [am] amide, other brackets name non-standard units. Square brackets hold non-standard residues; d marks the D form. Ends that are not written are not given here. Peptide text beside a SMILES is read from it.

How the values were obtained:
human erythrocytes = assay: Hemolysis assay; type: cell-based; details: ratio of hemolysis IC50 to MIC90
Description: Commercially available human blood (IWB1K2E10ML, Innovative Research Inc., Novi, MI, USA) was used to produce a 50% haematocrit solution by mixing at 1:1 with PBS 1× (P5493, 1 L, Sigma, St. Louis, MO, USA). Three consecutive PBS 1× washes plus centrifugation at 2600 rpm for 10 min steps were performed. Finally, a 2% erythrocyte solution was prepared in PBS 1× and chilled on ice until used. Polypropylene plates were filled with 50 µL PBS 1× per well for the samples and 50 µL 2% Triton X-100 (TX-100, 9002-93-1, 100 mL, Sigma, St. Louis, MO, USA) for the hemolysis controls. A solution at 4× final concentration of the assay of each peptide was prepared in PBS and 50 µL were added to the first column of each plate, followed by serial dilutions in the microplate. Then, 50 µL of the 2% erythrocyte solution was added to each plate. […] controls consisted in a 1:1 mix of PBS 1× and erythrocytes at 2%. Plates were incubated at 37 °C for 4 h and then centrifuged at 1500 rpm for 5 min. Eighty µL were extracted from the supernatant of each well carefully and transferred to a polystyrene flat bottom plate for reading and read at 450 nm in an Epoch microplate spectrophotometer (Epoch™, BioTek, Winooski, VT, USA).
The therapeutic index is a widely accepted parameter to represent the specificity of antimicrobial peptides for prokaryotic versus eukaryotic cells. It is calculated by the ratio of HC50 (hemolytic activity) and MIC (antimicrobial activity); thus, larger values of therapeutic index indicate greater specificity for prokaryotic cells.

[1] = Fmoc solid-phase peptide synthesis; Wang resin preloaded with Tyr; DIC/Oxyma; details: whole synthesis, 214 nm, scale 0.10 mmol

Row | Molecule | Therapeutic Index (IC50/MIC90) P. aeruginosa (human erythrocytes) | crude HPLC purity [1] [% pure]
1 | CC[C@@H](C)[C@@H](NC(=O)[C@@H](CCCCN)NC(=O)[C@@H](CCCCN)NC(=O)[C@@H](CC(C)C)NC(=O)[C@@H](CCCCN)NC(=O)[C@@H](CCC(=O)O)NC(=O)[C@@H](CCCCN)NC(=O)[C@H](NC(=O)[C@@H](CCCCN)NC(=O)[C@@H](CC(N)=O)NC(=O)[C@@H](CCCNC(=N)N)NC(=O)[C@@H](Cc1ccccc1)NC(=O)[C@@H](CCCCN)NC(=O)[C@@H](CCCNC(=N)N)NC(=O)[C@@H](CC(C)C)NC(=O)[C@@H](CCCNC(=N)N)NC(=O)[C@@H](CCCCN)NC(=O)[C@@H](CCCNC(=N)N)NC(=O)[C@@H](CC(C)C)NC(=O)CN)[C@H](C)CC)C(=O)NCC(=O)N[C@H](CCC(N)=O)C(=O)N[C@H](CCCCN)C(=O)N[C@@H](C(=O)N[C@H](CCC(N)=O)C(=O)NCC(=O)N[C@H](CC(C)C)C(=O)N[C@H](CC(C)C)C(=O)N1CCC[C@@H]1C(=O)N[C@H](CCCCN)C(=O)N[C@H](CC(C)C)C(=O)O)[C@H](C)CC [D-CAP-18_31, Glrkrlrkfrnkikeklkkigqkiqgllpkl] (H-G[dL][dR][dK][dR][dL][dR][dK][dF][dR][dN][dK][dI][dK][dE][dK][dL][dK][dK][dI]G[dQ][dK][dI][dQ]G[dL][dL][dP][dK][dL]-OH) | 25.3 | –
2 | PEPTIDE1{G.L.R.K.R.L.R.K.F.R.N.K.I.K.E.K.L.K.K.I.G.Q.K.I.Q.G.L.L.P.K.L.A.P.R.T.D.Y}$$$$V2.0 | – | 92
3 | H-GLRKRLRKFRNKIKEKLKKIGQKIQGLLPKL-OH [CAP-18_31] | 43.2 | –
4 | CC[C@@H](C)[C@@H](NC(=O)[C@@H](CCCCN)NC(=O)[C@@H](CCCCN)NC(=O)[C@@H](CC(C)C)NC(=O)[C@@H](CCCCN)NC(=O)[C@@H](CCC(=O)O)NC(=O)[C@@H](CCCCN)NC(=O)[C@H](NC(=O)[C@@H](CCCCN)NC(=O)[C@@H](CC(N)=O)NC(=O)[C@@H](CCCNC(=N)N)NC(=O)[C@@H](Cc1ccccc1)NC(=O)[C@@H](CCCCN)NC(=O)[C@@H](CCCNC(=N)N)NC(=O)[C@@H](CC(C)C)NC(=O)[C@@H](CCCNC(=N)N)NC(=O)[C@@H](CCCCN)NC(=O)[C@@H](CCCNC(=N)N)NC(=O)[C@@H](CC(C)C)NC(=O)CN)[C@H](C)CC)C(=O)NCC(=O)N[C@H](CCC(N)=O)C(=O)N[C@H](CCCCN)C(=O)N[C@@H](C(=O)N[C@H](CCC(N)=O)C(=O)NCC(=O)N[C@H](CC(C)C)C(=O)N[C@H](CC(C)C)C(=O)N1CCC[C@@H]1C(=O)N[C@H](CCCCN)C(=O)N[C@H](CC(C)C)C(=O)N[C@H](C)C(=O)N1CCC[C@@H]1C(=O)N[C@H](CCCNC(=N)N)C(=O)N[C@@H](C(=O)N[C@H](CC(=O)O)C(=O)N[C@H](Cc1ccc(O)cc1)C(=O)O)[C@H](C)O)[C@H](C)CC [D-CAP-18, Glrkrlrkfrnkikeklkkigqkiqgllpklaprtdy] (H-G[dL][dR][dK][dR][dL][dR][dK][dF][dR][dN][dK][dI][dK][dE][dK][dL][dK][dK][dI]G[dQ][dK][dI][dQ]G[dL][dL][dP][dK][dL][dA][dP][dR][dT][dD][dY]-OH) | 137.4 | –
5 | GLRKRLRKFRNKIKEKLKKIGQKIQGLLPKLAPRTDY [CAP-18] | 39.6 | –
